# Results: PubChem BioAssay AID1259415 (National Center for Advancing Translational Sciences (NCATS), 2018)
# Where “and” joins values, the source holds several entries; their conditions need not be identical. Equal values may be shown once. In all, about 410,000 compounds went through this assay and about 18,000 (4.4%) were called active. The shares of active, inactive and inconclusive entries below differ from those in the screen. Cut-off read from the data, not from the text of the source: active = activity change below about -60%; inconclusive = no clear call, values can overlap the other calls; inactive = above about -39%.
# Assay: qHTS Assay for inhibitors of the human cytomegalovirus (HCMV)
# Conditions: HFF cells, HCMV-luciferase reporter, 72 h; at 57.5 µM; stronger effect = lower value
# Summary of the method: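 Human foreskin fibroblasts infected with luciferase-reporter HCMV at MOI 1 PFU/cell, compounds at two doses. Luciferase measured 72 h post infection; normalized to buffer-only basal and Salinomycin (10uM) controls.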
# % is set by controls: 0 for no effect and ±100 for the full control effect.
row,SMILES,"activity change, negative = inhibition"
1,CC(C#N)Sc1ccc(S(=O)(=O)N(C)C2CCCCC2)cn1 (stereo not given),active: -61.6%
2,O=S(=O)(Nc1ccc(F)cc1F)c1ccc(-n2cccn2)cc1,inactive: -6.79%
3,Cc1cccc(N2CCN(C(=O)C3CCN(c4ncnc5c4nc4n5CCCCC4)CC3)CC2)c1C,inconclusive: -43.2% and active: -76.5%
4,Cc1ccc(CN2CCC(CNS(=O)(=O)c3ccc(-c4ccc(=O)[nH]n4)s3)CC2)cc1,inconclusive: 0%
5,COc1c(C(=O)Nc2ccccc2N2CCOCC2)cc2ccccc2c1Br,inconclusive: -54.9%
6,CC(C)[C@H](NC(=O)OCc1ccccc1)C(=O)OCC(=O)c1ccccc1,inconclusive: -49.8%
7,Cc1cc2c(cc1C)C(c1ccccc1Br)CC(=O)N2 (stereo not given),inactive: 33.8%
8,COc1ccc(CNn2c(-c3cccc(C)c3)nc3ccccc3c2=O)cc1OC,inconclusive: -48.2%
9,Cc1ccsc1/C=N/N=C/c1sccc1C,inactive: 111%
10,COc1ccccc1NC(=O)/C(=C/c1cccc([N+](=O)[O-])c1)c1ccccc1,inconclusive: -55.6%
11,CCCCCc1ccc(-c2cn(CC3CCCCC3)nn2)cc1,inconclusive: -40.1%
12,CC1CC(C)CN(C(=O)CN(C)S(=O)(=O)c2ccc3c(c2)c(=O)n(C)c(=O)n3C)C1 (stereo not given),inconclusive: -47.8%
13,OCCC1CN(Cc2ccccc2O)CCN1CCCc1ccccc1 (stereo not given),inactive: 55%
14,O=C(CN1CCCCCC1)Nc1cc(C(F)(F)F)ccc1Cl,inconclusive: -52.1%
15,CC(C)c1ccc(CC(=O)N2CCC2(C)C(=O)Nc2ccc3c(c2)OCCO3)cc1 (stereo not given),inconclusive: -47.8%
16,Cc1ccc(C(=O)Nc2ccc(CN3CCCCC3)cc2)c(C)c1,inconclusive: -41.4%
17,O=C1CC(C(=O)N2CCCc3ccccc32)CN1c1ccc(F)cc1 (stereo not given),inactive: -5.55%
18,COC(=O)c1ccccc1NC(=O)Nc1c(C)n(C)n(-c2ccccc2)c1=O,inconclusive: -44.9%
19,Cc1ccc(C)c(OC(=O)c2cncc(Br)c2)c1,inconclusive: -41.4%
20,C=CCNC(=O)c1c[nH]c2ccc(S(=O)(=O)N(C)c3ccc(OCC)cc3)cc2c1=O,active: -66.5%
21,O=C(O)CCn1cc(C(=O)O)c(-c2ccccc2)n1,inactive: -35.3%
22,COc1ccc(CCNC(=O)c2nn(C)c3c2CS(=O)(=O)c2ccccc2-3)c(OC)c1,inconclusive: -56.3%

row,SMILES,"activity change, negative = inhibition"
1,CCOC(=O)c1sc2nc(SCC(=O)N(CC)CC)n(CCCN3CCCC3=O)c(=O)c2c1C,inconclusive: -43.6%
2,O=[N+]([O-])c1cc([N+](=O)[O-])c(Oc2cccc(Cl)c2Cl)cc1NN1CCCCC1,inactive: -8.87%
3,Cc1cccc(NC(=O)c2ccc(N3CCOCC3)c([N+](=O)[O-])c2)n1,inconclusive: -44.3%
4,NC(=O)NC(=O)C(c1ccccc1)N1CCN(S(=O)(=O)Cc2ccccc2)CC1 (stereo not given),active: -87.6%
5,COc1ccc([C@@H]2[C@@H]3C(=O)N(C(C)(C)C)C(=O)[C@@H]3[C@]3(Cc4ccccc4)C(=O)N(c4ccc(C(F)(F)F)cc4)C(=O)N23)cc1,inactive: -19.3%
6,CC1=C(C(=O)OCc2ccccc2)C(c2ccc(-c3ccccc3)cc2)NC(=O)N1CCCC(=O)O (stereo not given),inactive: 4.61%
7,Cc1cc(C)c(NC(=O)CSc2nc3ccncc3[nH]2)c(C)c1,inconclusive: -44.1%
8,O=C(Nc1cccc2ccccc12)OC1C=CS(=O)(=O)C1 (stereo not given),active: -70.1%
9,COc1ccc(CNC(=O)c2ccc3nc(C(C)C)oc3c2)cc1OC,inactive: 8.07%
10,Cc1ccc(NC(=O)CN2C(=O)COc3ccc(S(=O)(=O)Nc4ccccc4)cc32)c(C)c1,inactive: 5.54%
11,O=C(OCc1ccccc1)N(CCF)c1cn(Cc2ccccc2)c(=O)n(Cc2ccccc2)c1=O,inconclusive: -58.1%
12,O=C(CCCC(=O)N/N=C\c1ccccn1)N/N=C\c1ccccn1,inactive: -31.8%
13,O=C(C=Cc1ccc2c(c1)OCO2)C1CC1,inconclusive: -44.6%
14,O=C1c2cccc([N+](=O)[O-])c2C(=O)N1c1cccnc1,inconclusive: -42.3%
15,Cc1ccc(C(=O)N/N=C/c2cc(Br)ccc2O)cn1,active: -102%
16,CN(Cc1ccccc1)C(=O)C1CCCN1S(=O)(=O)c1ccc(Cl)cc1 (stereo not given),inactive: -14.5%
17,CCCCn1cnc2cc(C)c(C)cc21,inactive: 9.9%
18,COc1ccc(NC(=O)C(C)Sc2ccccc2)cc1 (stereo not given),inactive: 63.6%
19,O=C(N/C(=C\c1cccnc1)c1nc2ccccc2[nH]1)c1cccc(Br)c1,inconclusive: -47.4%
20,CCC(CC)COC(=O)C1=C(C)NC(=O)NC1c1ccc(N(C)C)cc1 (stereo not given),inconclusive: -54.6%
21,Cc1ccc(NC(=O)CSc2nnc(-c3ccc(Br)cc3)o2)c(C)c1,inconclusive: -40%
22,Clc1ccc(-c2noc(CSc3nnc(Cc4cccs4)n3-c3ccccc3)n2)cc1,inactive: 25.3%

# Taken from above:
# Entry for O=C(CCCC(=O)N/N=C\c1ccccn1)N/N=C\c1ccccn1 under activity change, negative = inhibition: inactive: -31.8%
# Entry for CCCCn1cnc2cc(C)c(C)cc21 under activity change, negative = inhibition: inactive: 9.9%
# Entry for OCCC1CN(Cc2ccccc2O)CCN1CCCc1ccccc1 (stereo not given) under activity change, negative = inhibition: inactive: 55%
# Entry for COC(=O)c1ccccc1NC(=O)Nc1c(C)n(C)n(-c2ccccc2)c1=O under activity change, negative = inhibition: inconclusive: -44.9%
# Entry for COc1c(C(=O)Nc2ccccc2N2CCOCC2)cc2ccccc2c1Br under activity change, negative = inhibition: inconclusive: -54.9%
# Entry for O=C1c2cccc([N+](=O)[O-])c2C(=O)N1c1cccnc1 under activity change, negative = inhibition: inconclusive: -42.3%
# Entry for CC1CC(C)CN(C(=O)CN(C)S(=O)(=O)c2ccc3c(c2)c(=O)n(C)c(=O)n3C)C1 (stereo not given) under activity change, negative = inhibition: inconclusive: -47.8%

# Continuation.

row,SMILES,"activity change, negative = inhibition"
1,O=C(CN1C2=NCCCN2c2ccccc21)c1ccc([N+](=O)[O-])cc1,active: -65.9%
2,Cc1ccc(N(Cc2ccccc2)C(=O)c2cccc(S(=O)(=O)N3CC(C)OC(C)C3)c2)cc1 (stereo not given),inconclusive: -47.6%
3,NCC(O)COCCC12CC3CC(CC(C3)C1)C2 (stereo not given),inactive: -11.4%
4,COc1cc(C(=S)N2CCC(C)CC2)ccc1O,inconclusive: -45.2%
5,COc1ccccc1-c1nc(-c2ccccn2)no1,inconclusive: -46.9%
6,Cc1cnc(C(=O)OCC(=O)c2ccc(-c3ccccc3)cc2)cn1,inconclusive: -48.1%
7,Cc1nn(C)c(C)c1N1C(=O)c2cccc3c(Br)ccc(c23)C1=O,active: -73.7%
8,CCC(=O)NS(=O)(=O)c1ccc(N=NN2CCCCC2)cc1,inconclusive: -51.8%
9,O=C1CSC(=S)N1c1cccc(Br)c1,active: -77.3%
10,Cc1ccc(NC(=O)Nc2c(C)[nH]c(=O)[nH]c2=O)cc1Cl,inactive: -8.89%
11,Cc1cc(C)c(-c2csc(NC(=O)c3n[nH]c(=O)c4ccccc34)n2)c(C)c1,active: -72.7%
12,COCc1c(C(=O)N2CCN(c3ncccn3)CC2)oc2ccccc12,inactive: -9.43%
13,N#Cc1csc(CCNC(=O)c2ccccc2)n1,inconclusive: -49.2%
14,CCOC(=O)c1ccc(NC(=O)COc2cc3oc(=O)c(CC(C)O)c(C)c3cc2Cl)cc1 (stereo not given),inactive: 17.5%
15,CNC(=O)C(C#N)(Cc1cc(C(C)=O)ccc1OC)Cc1cc(C(C)=O)ccc1OC,inactive: 5.27%
16,CC(SC#N)C(=O)C12CC3CC(CC(C3)C1)C2 (stereo not given),inconclusive: -43.3%
17,CC(=O)c1cc(-c2ccccc2)n(CCC(=O)NC(C)c2ccccc2)c1C (stereo not given),inconclusive: 0%
18,CCN(CC)C(=O)CSc1nc(-c2ccc(C)cc2)nc2c1COC(C)(C)C2,inconclusive: -41.2%
19,Nc1c(N2CCN(c3ccccc3)CC2)c2ccccc2oc1=O,active: -100%
20,COc1cccc(/C=C/C(=O)OCC(=O)NCC2CCCO2)c1 (stereo not given),inconclusive: -45.3%
21,O=C(c1ccccc1)c1cccs1,inconclusive: -44.5%
22,Cc1nn(CCCC(=O)NCc2ccccc2)c(=O)c2cc3sccc3n12,inconclusive: -51%

row,SMILES,"activity change, negative = inhibition"
1,COc1cc([C@@H]2c3cc4c(cc3[C@@H](OC)[C@H]3COC(=O)[C@H]23)OCO4)cc(OC)c1O,inconclusive: -57.9%
2,Cc1ccc(N(C(=O)CNC(=O)c2ccco2)C(C(=O)NCC2CCCO2)c2ccccc2)c(C)c1 (stereo not given),inconclusive: -47.3%
3,O=C(CN1C(=O)NC(c2ccccc2)(c2ccccc2)C1=O)NC1CCCCC1,inconclusive: -49.6%
4,O=C(NCc1ccccn1)c1cc(Br)ccc1Cl,inconclusive: -44.9%
5,Cc1ccc(S(=O)(=O)/N=C(/Nc2c(C)n(C)n(-c3ccccc3)c2=O)c2ccc(Cl)cc2)cc1,inconclusive: -42.9%
6,Cc1[nH]c2ccccc2c1/C=N/Nc1nc2ccccc2[nH]1,active: -97.7%
7,O=C1CC(c2ccccc2)CC2=C1C=Nc1ccccc1N2 (stereo not given),active: -76.8%
8,CN1CCC(=NNC(=O)CN(c2cccc(Cl)c2)S(C)(=O)=O)CC1,inconclusive: -40.1%
9,C[C@@H](Oc1ccccc1)c1nnn(Cc2ccccc2)c1-c1c([C@@H](C)Oc2ccccc2)nnn1Cc1ccccc1,active: -72.4%
10,CCN(C[C@H]1N[C@@](CC)(C(=O)OC)[C@H]2C(=O)N(C)C(=O)[C@@H]12)S(=O)(=O)c1ccc(OC(F)(F)F)cc1,inactive: -3.03%
11,COc1cc(CN2CCc3nc(N4CCN(c5ccccn5)CC4)ncc3C2)cc(OC)c1OC,active: -63.4%
12,Fc1ccc(CSc2nc(NCc3ccccc3)c3ccccc3n2)cc1,inconclusive: -42.8%
13,Cc1ccc2c(c1)N(CCCC(=O)NCc1cccnc1)C(=O)CO2,inconclusive: -55.1%
14,CC(=O)N(Cc1ccccc1)c1ncc2c(n1)c(=O)c(C#N)c1ccccn12,inconclusive: -46.3%
15,CC(=O)c1ccc(OC2(C)CCN(Cc3ccc4c(c3)OCCO4)C2)cc1 (stereo not given),inactive: 54.4%
16,CCN(CC)C(=O)c1ccc(NC(=O)CCn2nc(-c3ccc(C)cc3)c3ccccc3c2=O)cc1,active: -65.4%
17,Cc1ccc(CN2CCNC(=O)C2CC(=O)N(C)CCc2cnn(C)c2)cc1 (stereo not given),inconclusive: -56.2%
18,COc1ccccc1/C=C1\SC(=O)N(CCC(=O)N(C)C2CCS(=O)(=O)C2)C1=O (stereo not given),inactive: -7.61%
19,CCOc1ccc(-n2c(=O)c3c(C)c(C(=O)N(C)C)sc3n(CC(=O)Nc3ccccc3F)c2=O)cc1,inconclusive: -45.3%
